Some of the results follow.
Legend:
Test in all cases: log2 fold change, soluble protein after heating vs DMSO (PISA); higher = thermal stabilisation; K562 cells, 10 uM, 30 min; active = over 0.2 and 3.5 SD of the protein, either way, in both replicates (recomputed)
saracatinib = compound: CN1CCN(CCOc2cc(OC3CCOCC3)c3c(Nc4c(Cl)ccc5c4OCO5)ncnc3c2)CC1 [saracatinib]
Summary of the method: (§1)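 K562 cells (2×10^6 cells/mL) were treated with 10 μM compound for 30 min, and aliquots were heated for 3 min over 48°C-58°C. Pooled aliquots were extracted in PBS with 0.5% NP-40 at 4°C, and the supernatant after 21,000xg for 90 min was measured by TMTpro 16plex LC-MS/MS with channel sums equalised. Reported thermal stability, relative to control samples and from duplicates, is a log2 fold change.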

By UniProt entry, the sequences of proteins in these tests, tags left out. Where a name states a change or a piece, a line headed by the entry shows the natural chain unless it says otherwise.
UniProt O75298: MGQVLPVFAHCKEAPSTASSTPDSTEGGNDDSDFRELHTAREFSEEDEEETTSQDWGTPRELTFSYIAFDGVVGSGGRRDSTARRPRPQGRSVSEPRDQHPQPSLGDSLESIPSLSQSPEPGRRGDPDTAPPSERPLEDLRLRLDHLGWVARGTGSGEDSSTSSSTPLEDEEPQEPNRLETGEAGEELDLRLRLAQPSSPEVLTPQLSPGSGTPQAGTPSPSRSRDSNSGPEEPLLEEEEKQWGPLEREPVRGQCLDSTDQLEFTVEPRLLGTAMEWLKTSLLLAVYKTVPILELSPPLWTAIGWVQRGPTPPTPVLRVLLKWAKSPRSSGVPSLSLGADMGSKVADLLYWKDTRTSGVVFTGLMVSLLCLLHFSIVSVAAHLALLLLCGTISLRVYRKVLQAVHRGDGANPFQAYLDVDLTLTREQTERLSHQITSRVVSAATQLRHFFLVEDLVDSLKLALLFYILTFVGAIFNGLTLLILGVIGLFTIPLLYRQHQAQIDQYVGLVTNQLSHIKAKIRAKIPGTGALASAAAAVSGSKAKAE
UniProt Q9BRK5: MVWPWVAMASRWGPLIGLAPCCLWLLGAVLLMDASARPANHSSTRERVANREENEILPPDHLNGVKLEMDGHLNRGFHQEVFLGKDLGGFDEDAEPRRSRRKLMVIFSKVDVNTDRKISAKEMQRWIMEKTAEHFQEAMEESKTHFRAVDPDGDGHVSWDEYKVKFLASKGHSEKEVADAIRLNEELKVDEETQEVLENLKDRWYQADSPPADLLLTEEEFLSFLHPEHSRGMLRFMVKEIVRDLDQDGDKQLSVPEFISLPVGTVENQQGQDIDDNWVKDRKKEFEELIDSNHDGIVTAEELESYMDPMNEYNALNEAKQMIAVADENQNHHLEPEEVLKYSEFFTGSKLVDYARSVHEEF
UniProt Q6NW29: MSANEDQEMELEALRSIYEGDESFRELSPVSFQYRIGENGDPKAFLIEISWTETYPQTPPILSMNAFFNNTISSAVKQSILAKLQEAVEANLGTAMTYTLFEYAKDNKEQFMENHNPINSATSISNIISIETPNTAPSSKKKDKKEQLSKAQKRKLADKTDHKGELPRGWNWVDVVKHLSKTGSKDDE
UniProt P82979: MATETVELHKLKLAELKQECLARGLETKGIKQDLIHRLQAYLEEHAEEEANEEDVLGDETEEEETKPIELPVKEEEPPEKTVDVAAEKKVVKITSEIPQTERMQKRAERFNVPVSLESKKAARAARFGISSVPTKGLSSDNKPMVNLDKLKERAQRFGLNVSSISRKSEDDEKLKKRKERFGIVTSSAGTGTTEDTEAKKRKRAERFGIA
UniProt Q96GA7: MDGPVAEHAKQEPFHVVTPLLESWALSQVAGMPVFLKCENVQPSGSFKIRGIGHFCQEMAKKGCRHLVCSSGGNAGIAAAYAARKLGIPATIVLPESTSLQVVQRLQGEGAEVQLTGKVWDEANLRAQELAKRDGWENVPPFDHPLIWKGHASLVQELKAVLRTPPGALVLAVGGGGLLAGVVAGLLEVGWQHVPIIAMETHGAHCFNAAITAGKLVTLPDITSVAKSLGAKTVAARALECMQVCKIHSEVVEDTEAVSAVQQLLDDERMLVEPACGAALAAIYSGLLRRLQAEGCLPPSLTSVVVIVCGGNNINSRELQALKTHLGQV
UniProt Q9Y6B6: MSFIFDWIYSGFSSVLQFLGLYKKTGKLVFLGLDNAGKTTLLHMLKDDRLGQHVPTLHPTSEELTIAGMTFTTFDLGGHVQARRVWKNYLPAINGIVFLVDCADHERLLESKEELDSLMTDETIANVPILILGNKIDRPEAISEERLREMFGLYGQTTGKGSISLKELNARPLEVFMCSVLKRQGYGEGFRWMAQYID
UniProt O95197: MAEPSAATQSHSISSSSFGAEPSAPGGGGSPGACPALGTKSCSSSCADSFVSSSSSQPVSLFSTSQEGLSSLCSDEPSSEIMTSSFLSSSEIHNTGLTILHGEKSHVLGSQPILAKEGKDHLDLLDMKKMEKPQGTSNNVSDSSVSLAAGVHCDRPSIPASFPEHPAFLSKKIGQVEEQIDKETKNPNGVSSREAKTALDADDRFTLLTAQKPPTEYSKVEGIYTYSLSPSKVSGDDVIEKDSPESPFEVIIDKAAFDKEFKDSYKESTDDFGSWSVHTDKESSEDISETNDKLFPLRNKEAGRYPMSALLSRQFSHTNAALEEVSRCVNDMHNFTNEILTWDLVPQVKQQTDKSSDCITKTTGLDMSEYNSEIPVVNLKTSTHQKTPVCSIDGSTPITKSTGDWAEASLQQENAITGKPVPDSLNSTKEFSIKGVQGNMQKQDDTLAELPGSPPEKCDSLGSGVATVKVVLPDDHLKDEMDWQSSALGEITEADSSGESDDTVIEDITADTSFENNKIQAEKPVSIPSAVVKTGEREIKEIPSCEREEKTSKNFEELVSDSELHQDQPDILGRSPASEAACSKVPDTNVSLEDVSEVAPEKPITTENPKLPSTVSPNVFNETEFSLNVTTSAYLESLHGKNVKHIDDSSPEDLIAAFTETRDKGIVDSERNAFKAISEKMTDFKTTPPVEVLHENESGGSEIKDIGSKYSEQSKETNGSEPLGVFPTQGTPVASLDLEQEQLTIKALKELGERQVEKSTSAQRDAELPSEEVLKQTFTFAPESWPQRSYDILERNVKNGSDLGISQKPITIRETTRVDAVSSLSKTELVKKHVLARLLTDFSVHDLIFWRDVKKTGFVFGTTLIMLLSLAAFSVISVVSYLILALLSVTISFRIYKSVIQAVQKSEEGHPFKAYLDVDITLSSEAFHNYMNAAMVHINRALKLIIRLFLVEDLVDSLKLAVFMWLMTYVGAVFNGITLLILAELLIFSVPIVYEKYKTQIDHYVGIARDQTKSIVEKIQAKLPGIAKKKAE

sotrastaurin = compound: CN1CCN(c2nc(C3=C(c4c[nH]c5ccccc45)C(=O)NC3=O)c3ccccc3n2)CC1 [sotrastaurin]
Summary of the method: as §1

alvocidib = compound: CN1CC[C@H](c2c(O)cc(O)c3c(=O)cc(-c4ccccc4Cl)oc23)[C@H](O)C1 [alvocidib]
Summary of the method: as §1

Tubastatin A = compound: CN1CCc2c(c3ccccc3n2Cc2ccc(C(=O)NO)cc2)C1 [Tubastatin A]
Summary of the method: as §1

[1] = compound: CNC(=O)C1=CC=CC=C1NC2=NC(=NC=C2Cl)NC3=C(C=C(C=C3)N4CCOCC4)OC
Summary of the method: as §1

defactinib = compound: CNC(=O)c1ccc(Nc2ncc(C(F)(F)F)c(NCc3nccnc3N(C)S(C)(=O)=O)n2)cc1 [defactinib]
Summary of the method: as §1

rucaparib = compound: CNCc1ccc(-c2[nH]c3cc(F)cc4c3c2CCNC4=O)cc1 [rucaparib]
Summary of the method: as §1

[2] = compound: CNc1nc(-c2ccc3c(N)n[nH]c3c2)cc(N2C[C@@H](C(=O)NC3CCCCC3)CC[C@H]2C)n1
Summary of the method: as §1

encorafenib = compound: COC(=O)N[C@@H](C)CNc1nccc(-c2cn(C(C)C)nc2-c2cc(Cl)cc(NS(C)(=O)=O)c2F)n1 [encorafenib]
Summary of the method: as §1

[3] = compound: COC(=O)[C@H](CCSC)NC(=O)C1=C(C=C(C=C1)NC[C@H](CS)N)C2=CC=CC=C2
Summary of the method: as §1

[4] = compound: COC1=CC=C(C=C1)CN2C=CC3=C2C=C(C=C3)C(=O)NO
Summary of the method: as §1

filanesib = compound: CON(C)C(=O)N1N=C(c2cc(F)ccc2F)S[C@@]1(CCCN)c1ccccc1 [filanesib]
Summary of the method: as §1

zotarolimus = compound: CO[C@H]1C[C@@H]2CC[C@@H](C)[C@@](O)(O2)C(=O)C(=O)N2CCCC[C@H]2C(=O)O[C@H]([C@H](C)C[C@@H]2CC[C@H](n3cnnn3)[C@H](OC)C2)CC(=O)[C@H](C)/C=C(\C)[C@@H](O)[C@@H](OC)C(=O)[C@H](C)C[C@H](C)/C=C/C=C/C=C/1C [zotarolimus]
Summary of the method: as §1

idasanutlin = compound: COc1cc(C(=O)O)ccc1NC(=O)[C@@H]1N[C@@H](CC(C)(C)C)[C@](C#N)(c2ccc(Cl)cc2F)[C@H]1c1cccc(Cl)c1F [idasanutlin]
Summary of the method: as §1

alisertib = compound: COc1cc(Nc2ncc3c(n2)-c2ccc(Cl)cc2C(c2c(F)cccc2OC)=NC3)ccc1C(=O)O [alisertib]
Summary of the method: as §1

[5] = compound: COc1cc2nc(-c3cc(F)ccc3O)nc(N[C@@H]3CNC[C@H]3C(C)(C)O)c2cc1OC
Summary of the method: as §1

gefitinib = compound: COc1cc2ncnc(Nc3ccc(F)c(Cl)c3)c2cc1OCCCN1CCOCC1 [gefitinib]
Summary of the method: as §1

[6] = compound: COc1cccc2cc(-c3nc([C@H]4CC[C@H](C(=O)O)CC4)n4ncnc(N)c34)[nH]c12
Summary of the method: as §1

lapatinib = compound: CS(=O)(=O)CCNCc1ccc(-c2ccc3ncnc(Nc4ccc(OCc5cccc(F)c5)c(Cl)c4)c3c2)o1 [lapatinib]
Summary of the method: as §1

pictilisib = compound: CS(=O)(=O)N1CCN(Cc2cc3nc(-c4cccc5[nH]ncc45)nc(N4CCOCC4)c3s2)CC1 [pictilisib]
Summary of the method: as §1

Measured: log2 fold change

RTN2 (UniProt O75298)
inactive: saracatinib 0.111 | sotrastaurin 0.07 | alvocidib -0.018 | Tubastatin A -0.138 | [1] 0.064 | defactinib -0.021 | rucaparib -0.012 | [2] 0.039 | encorafenib -0.048 | [3] 0.077 | [4] 0.098 | filanesib -0.036 | zotarolimus -0.074 | idasanutlin -0.042 | alisertib -0.213 | [5] -0.232 | gefitinib -0.017 | [6] 0.048 | lapatinib -0.034

SDF4 (UniProt Q9BRK5)
inactive: saracatinib 0.011 | sotrastaurin 0.027 | alvocidib 0.011 | Tubastatin A -0.005 | [1] 0.041 | defactinib 0.004 | rucaparib 0.05 | [2] -0.08 | encorafenib 0 | [3] -0.04 | [4] -0.033 | filanesib 0.026 | zotarolimus 0.021 | idasanutlin -0.054 | alisertib -0.061 | [5] 0.029 | gefitinib 0.104 | [6] 0.012 | lapatinib 0.004 | pictilisib -0.01

RWDD4 (UniProt Q6NW29)
inactive: saracatinib -0.114 | sotrastaurin -0.164 | alvocidib -0.02 | Tubastatin A 0.003 | [1] 0.047 | defactinib -0.036 | rucaparib 0.047 | [2] -0.041 | encorafenib 0.127 | [3] -0.005 | [4] -0.028 | filanesib 0.044 | zotarolimus -0.038 | idasanutlin -0.039 | alisertib -0.158 | [5] 0.014 | gefitinib 0.052 | [6] 0 | lapatinib -0.038 | pictilisib 0.097

SARNP (UniProt P82979)
inactive: saracatinib 0.007 | sotrastaurin 0.075 | alvocidib 0.121 | Tubastatin A -0.032 | [1] -0.011 | defactinib 0.073 | rucaparib -0.029 | [2] -0.064 | encorafenib -0.085 | [3] 0.062 | [4] -0.128 | filanesib 0.044 | zotarolimus -0.038 | idasanutlin 0.066 | alisertib -0.065 | [5] 0.04 | gefitinib -0.012 | [6] 0.083 | lapatinib -0.079 | pictilisib 0.057

SDSL (UniProt Q96GA7)
inactive: saracatinib 0.086 | sotrastaurin 0.017 | alvocidib -0.057 | Tubastatin A -0.046 | [1] -0.005 | defactinib -0.001 | rucaparib -0.058 | [2] -0.104 | encorafenib -0.017 | [3] 0.002 | [4] 0.065 | filanesib -0.005 | zotarolimus -0.015 | idasanutlin -0.039 | alisertib -0.024 | [5] -0.015 | gefitinib 0.049 | [6] 0.057 | lapatinib -0.004 | pictilisib 0.082

SAR1B (UniProt Q9Y6B6)
inactive: saracatinib 0.036 | sotrastaurin -0.023 | alvocidib -0.003 | Tubastatin A 0.012 | [1] 0.051 | defactinib 0.016 | rucaparib -0.057 | [2] -0.048 | encorafenib 0.018 | [3] -0.055 | [4] -0.035 | filanesib -0.09 | zotarolimus -0.017 | idasanutlin -0.131 | alisertib -0.03 | [5] 0.063 | gefitinib -0.008 | [6] 0.043 | lapatinib -0.041 | pictilisib 0.06

RTF1 (UniProt Q92541)
inactive: saracatinib 0 | sotrastaurin -0.022 | alvocidib -0.094 | Tubastatin A 0.042 | [1] 0.021 | defactinib -0.091 | rucaparib -0.028 | [2] 0.037 | encorafenib 0.022 | [3] -0.017 | [4] -0.001 | filanesib -0.046 | zotarolimus 0.007 | idasanutlin -0.021 | alisertib 0.021 | [5] 0.056 | gefitinib 0.08 | [6] 0.004 | lapatinib 0.005 | pictilisib 0.033

RTN3 isoform 5 (UniProt O95197)
inactive: saracatinib -0.139 | sotrastaurin 0.114 | alvocidib -0.191 | Tubastatin A -0.158 | [1] 0.011 | defactinib -0.163 | rucaparib 0.163 | [2] 0.156 | encorafenib 0.063 | [3] -0.111 | [4] -0.105 | filanesib -0.058 | zotarolimus 0.103 | idasanutlin -0.078 | alisertib -0.118 | [5] -0.018 | gefitinib -0.074 | [6] 0.106 | lapatinib -0.1

— the supplement of paper PMC10849652
